From PubChem BioAssay AID248 (DTP/NCI, 2004)
The list does not hold the whole screen: it gathers tests that were run many times, whatever their T/C, doses with no T/C, and many T/C values between a quarter and a half above the control. Other doses and runs of a compound stand elsewhere. T/C: endpoint of the treated group in % of that of the vehicle group. Some doses have a count of surviving animals in place of a T/C: the source holds a T/C of zero for them, seemingly a mark for toxic or unscored doses. Some doses without a T/C left all or most animals alive at the check, yet need not have been tolerated: survival well below the control is almost never listed, so the zero probably covers shortened survival too. Counts of survivors are from the toxicity check (mostly the fifth day) where no day follows; animals may have died later. Schedule codes are those of the source, taken here to give the interval after Q, in days (D) or hours (H), and the number of doses after X. Some entries hold several experiments; the results are listed from low to high. Some schedule codes hold Z or #, which are not explained here. Some structures stand for samples that the source files as different forms (salt, stereo form or complex); doses refer to the form tested. For survival time, the PubChem record calls one and a half times the control and up active, and a quarter to a half above the control has no call in these data; cut-offs in other NCI protocols can differ. Some T/C values carry the count of animals alive at the toxicity check (mostly the fifth day); without a count, all were alive then.

Tested on: L1210 leukemia ip in BDF1 mice, survival T/C
Test: NCI In Vivo Anticancer Drug Screen. Data for tumor model L1210 Leukemia (intraperitoneal) in B6D2F1 (BDF1) mice
Settings: T/C endpoint: mean survival time, higher T/C = longer survival
[1] = dose: 12.5 mg/kg/injection, schedule: Q01DX009 (ip), vehicle: Klucel (hydroxypropylcellulose) (HPC)
[2] = dose: 25.0 mg/kg/injection, schedule: Q01DX009 (ip), vehicle: Klucel (hydroxypropylcellulose) (HPC)
[3] = dose: 200.0 mg/kg/injection, schedule: Q04DX003 (ip), vehicle: Klucel (hydroxypropylcellulose) (HPC)
[4] = dose: 400.0 mg/kg/injection, schedule: Q04DX003 (ip), vehicle: Klucel (hydroxypropylcellulose) (HPC)
[5] = dose: 200.0 mg/kg/injection, schedule: Q04DX002 (ip), vehicle: saline with Tween-80
[6] = dose: 400.0 mg/kg/injection, schedule: Q04DX002 (ip), vehicle: saline with Tween-80
[7] = dose: 400.0 mg/kg/injection, schedule: Q04DX003 (ip), vehicle: saline with Tween-80
[8] = dose: 100.0 mg/kg/injection, schedule: Q01DX009 (ip), vehicle: Klucel (hydroxypropylcellulose) (HPC)
[9] = dose: 400.0 mg/kg/injection, schedule: Q04DX003 (ip), vehicle: saline
[10] = dose: 400.0 mg/kg/injection, schedule: Q01DX001 (ip), vehicle: saline
[11] = dose: 400.0 mg/kg/injection, schedule: Q01DX009 (ip), vehicle: Klucel (hydroxypropylcellulose) (HPC)

Q: Which T/C [1] does the source give for `Nc1nc(=S)c2[nH]c(N=Nc3ccc(S(=O)(=O)Nc4ccccn4)cc3)nc2[nH]1` here?
A: The T/C was 138, 143, 145 % of control.

Q: And the T/C [2]?
A: The T/C was 134 and 147 % of control.

Q: And the T/C (dose: 100.0 mg/kg/injection, schedule: Q04DX003 (ip), vehicle: Klucel (hydroxypropylcellulose) (HPC))?
A: Its T/C is 143 % of control.

Q: What about the T/C [3] of the same compound?
A: The T/C was 125 and 126 % of control.

Q: What about the survivor count [4] of the same compound?
A: The survivor count was 4 of 6.

Q: With `CC(C)(O)C(Cc1ccccc1)c1ccccc1` (stereo unspecified) as the compound, how does the survivor count (dose: 100.0 mg/kg/injection, schedule: Q04DX002 (ip), vehicle: saline with Tween-80) read?
A: The survivor count was 1 of 3.

Q: What about the survivor count [5] of the same compound?
A: Its survivor count is 0 of 3.

Q: What about the survivor count [6] of the same compound?
A: Its survivor count is 0 of 3.

Q: Which results are given for `C[N+](C)(C)c1ccc(N=Nc2ccccn2)cc1`?
A: survivor count (dose: 100.0 mg/kg/injection, schedule: Q01DX001 (ip), vehicle: saline): 1 of 6; survivor count (dose: 200.0 mg/kg/injection, schedule: Q01DX001 (ip), vehicle: saline): 0 of 6

Q: Which results are given for `CCOC(=O)NCC(CCN1CCCCC1)(CCN1CCCCC1)c1cccc2ccccc12`?
A: survivor count [3]: 0 of 6; survivor count [4]: 0 of 6

Q: With `O=C(NCCF)NC1CCCCCCCCCCC1` as the compound, how does the survivor count (dose: 75.0 mg/kg/injection, schedule: Q01DX001 (ip), vehicle: other) read?
A: The survivor count was 0 of 6.

Q: What about the survivor count (dose: 150.0 mg/kg/injection, schedule: Q01DX001 (ip), vehicle: other) of the same compound?
A: The survivor count was 1 of 6.

Q: What about the survivor count (dose: 300.0 mg/kg/injection, schedule: Q01DX001 (ip), vehicle: other) of the same compound?
A: The survivor count was 0 of 6.

Q: With `O=C(Nc1cc[n+](Cc2ccc(S(=O)(=O)F)cc2)cc1)c1ccccc1` as the compound, how does the survivor count [7] read?
A: Its survivor count is 3 of 6.

Q: With `C=CCSc1ccnc(N)n1` as the compound, how does the survivor count (dose: 200.0 mg/kg/injection, schedule: Q01DX001 (ip), vehicle: Klucel (hydroxypropylcellulose) (HPC)) read?
A: Its survivor count is 3 of 6.

Q: Which results are given for `C1=CC23C4CCC2C2C4C4C(=C1)C3C2N1CCCCC41` (stereo unspecified)?
A: survivor count [8]: 1 of 6; survivor count [3]: 1 of 6; survivor count [4]: 0 of 6

Q: What does the source list for `Cc1cccc(Br)[n+]1[O-]`?
A: survivor count (dose: 200.0 mg/kg/injection, schedule: Q01DX009 (ip), vehicle: saline): 5 of 6; survivor count [9]: 1 of 6

Q: For `CC(NC(=O)OCc1ccccc1)C(=O)NCCC(N)=O` (stereo unspecified), which survivor count (dose: 400.0 mg/kg/injection, schedule: Q01DX009 (ip), vehicle: saline with Tween-80) is on record?
A: Its survivor count is 6 of 6.

Q: How did the survivor count (dose: 300.0 mg/kg/injection, schedule: Q01DX001 (ip), vehicle: saline) turn out when `C[N+](C)(C)C1CCCCC1` was run?
A: The survivor count was 0 of 6 and 1 of 6.

Q: `CN1CCc2ccc(O)cc2C1` was tested. Which survivor count [9] did it give?
A: The survivor count was 3 of 6.

Q: Which survivor count [10] does the source give for `CC12COC(=O)CC1CCC1C2CCC2(C)C1CCC2(C)O` (stereo unspecified) here?
A: The survivor count was 3 of 6.

Q: For `CN(C)CCCOc1c2ccccc2cc2ccccc12`, which survivor count (dose: 32.0 mg/kg/injection, schedule: Q01DX015 (ip), vehicle: carboxymethylcellulose (CMC)) is on record?
A: Its survivor count is 3 of 6.

Q: How did the survivor count (dose: 100.0 mg/kg/injection, schedule: Q01DX001 (ip), vehicle: saline with Tween-80) turn out when `CC(C)(C)OOC(=O)Nc1ccc(Cl)cc1` was run?
A: The survivor count was 3 of 3.

Q: Which survivor count (dose: 100.0 mg/kg/injection, schedule: Q04DX003 (ip), vehicle: saline) does the source give for `OCCN1CCN(CCCN2c3ccccc3Oc3ccc(C(F)(F)F)cc32)CC1` here?
A: Its survivor count is 1 of 4.

Q: And the survivor count (dose: 200.0 mg/kg/injection, schedule: Q04DX003 (ip), vehicle: saline)?
A: The survivor count was 0 of 4.

Q: What about the survivor count [9] of the same compound?
A: Its survivor count is 1 of 4.

Q: With `O=C(O)c1ccc(N=NSc2ncnc3nc[nH]c23)cc1O` as the compound, how does the T/C (dose: 0.25 mg/kg/injection, schedule: Q01DX015 (ip), vehicle: carboxymethylcellulose (CMC)) read?
A: Its T/C is 129 % of control.

Q: And the T/C (dose: 0.5 mg/kg/injection, schedule: Q01DX015 (ip), vehicle: carboxymethylcellulose (CMC))?
A: The T/C was 137 % of control.

Q: And the T/C (dose: 1.0 mg/kg/injection, schedule: Q01DX015 (ip), vehicle: carboxymethylcellulose (CMC))?
A: Its T/C is 141 % of control.

Q: And the T/C (dose: 2.0 mg/kg/injection, schedule: Q01DX015 (ip), vehicle: carboxymethylcellulose (CMC))?
A: Its T/C is 130 % of control.

Q: What about the survivor count (dose: 80.0 mg/kg/injection, schedule: Q01DX015 (ip), vehicle: carboxymethylcellulose (CMC)) of the same compound?
A: The survivor count was 6 of 6.

Q: What about the survivor count (dose: 160.0 mg/kg/injection, schedule: Q01DX015 (ip), vehicle: carboxymethylcellulose (CMC)) of the same compound?
A: The survivor count was 4 of 6.

Q: Which results are given for `CN(C)CCSCC(OC(=O)c1ccccc1)c1ccccc1` (stereo unspecified)?
A: survivor count (dose: 200.0 mg/kg/injection, schedule: Q04DX003 (ip), vehicle: saline with Tween-80): 4 of 6; survivor count [7]: 1 of 6

Q: How did the survivor count [4] turn out when `CC(=O)Oc1c(C2CCCCC2)cc([N+](=O)[O-])cc1[N+](=O)[O-]` was run?
A: Its survivor count is 2 of 6.

Q: Which survivor count (dose: 400.0 mg/kg/injection, schedule: Q04DX002 (ip), vehicle: Klucel (hydroxypropylcellulose) (HPC)) does the source give for `C/C(=N\O)c1c[nH]c(=O)[nH]c1=O` here?
A: Its survivor count is 0 of 3.

Q: How did the survivor count [10] turn out when `NCCCc1c(-c2ccccc2)nc(N)[nH]c1=O` was run?
A: The survivor count was 0 of 4.

Q: With `CCOc1cc2ccc3c4cc(OC)c(OC)cc4c[n+](C)c3c2cc1OCC` as the compound, how does the survivor count [5] read?
A: The survivor count was 2 of 3.

Q: What about the survivor count [6] of the same compound?
A: The survivor count was 1 of 3.

Q: How did the survivor count (dose: 200.0 mg/kg/injection, schedule: Q01DX009 (ip), vehicle: saline with Tween-80) turn out when `COC(=O)/C(=C/c1ccccc1)CBr` was run?
A: Its survivor count is 3 of 3.

Q: `CCCCS(=O)(=O)Nc1ccc(Nc2c3ccccc3nc3ccccc23)c(OC)c1` was tested. Which T/C (dose: 6.25 mg/kg/injection, schedule: Q01DX009 (ip), vehicle: saline) did it give?
A: The T/C was 127 % of control.

Q: And the T/C [1]?
A: Its T/C is 139 % of control.

Q: And the T/C [2]?
A: The T/C was 148 % of control.

Q: And the T/C (dose: 50.0 mg/kg/injection, schedule: Q01DX009 (ip), vehicle: saline)?
A: Its T/C is 137 % of control [5 of 6 alive].

Q: What about the survivor count [8] of the same compound?
A: Its survivor count is 6 of 6.

Q: What about the survivor count (dose: 200.0 mg/kg/injection, schedule: Q01DX009 (ip), vehicle: Klucel (hydroxypropylcellulose) (HPC)) of the same compound?
A: Its survivor count is 6 of 6.

Q: How did the survivor count [11] turn out when `CCOC(=O)/C(C#N)=C\C=C\c1ccccc1` was run?
A: The survivor count was 3 of 6.

Q: Which results are given for `CO[C@@H]1[C@@H](OC2OC(C)C(OC3CC(C)(O)C(OC(=O)CC(C)C)C(C)O3)C(N(C)C)C2O)[C@@H](CC=O)C[C@@H](C)C(=O)/C=C/C2O[C@H]2C[C@@H](C)OC(=O)C[C@H]1OC(C)=O` (stereo partly specified)?
A: survivor count (dose: 50.0 mg/kg/injection, schedule: Q#A X030 (ip), vehicle: water): 6 of 6; survivor count (dose: 400.0 mg/kg/injection, schedule: Q01DX015 (ip), vehicle: water): 6 of 6; survivor count (dose: 600.0 mg/kg/injection, schedule: Q01DX015 (ip), vehicle: water): 0 of 6; survivor count (dose: 1000.0 mg/kg/injection, schedule: Q01DX015 (oral), vehicle: water): 6 of 6; survivor count (dose: 1500.0 mg/kg/injection, schedule: Q01DX015 (oral), vehicle: water): 6 of 6

Q: With `CN(CCO)N=Nc1ccccc1` as the compound, how does the survivor count (dose: 12.5 mg/kg/injection, schedule: Q04DX003 (ip), vehicle: other) read?
A: Its survivor count is 6 of 6.

Q: And the survivor count (dose: 25.0 mg/kg/injection, schedule: Q04DX003 (ip), vehicle: other)?
A: Its survivor count is 6 of 6.

Q: And the survivor count (dose: 50.0 mg/kg/injection, schedule: Q01DX009 (ip), vehicle: other)?
A: The survivor count was 1 of 6.

Q: And the survivor count (dose: 50.0 mg/kg/injection, schedule: Q04DX003 (ip), vehicle: other)?
A: The survivor count was 2 of 6 and 6 of 6.

Q: What about the survivor count (dose: 100.0 mg/kg/injection, schedule: Q01DX009 (ip), vehicle: other) of the same compound?
A: The survivor count was 0 of 6.

Q: And the survivor count (dose: 100.0 mg/kg/injection, schedule: Q04DX003 (ip), vehicle: other)?
A: Its survivor count is 0 of 6.

Q: And the survivor count (dose: 200.0 mg/kg/injection, schedule: Q01DX009 (ip), vehicle: other)?
A: Its survivor count is 0 of 6.

Q: What about the survivor count (dose: 200.0 mg/kg/injection, schedule: Q04DX003 (ip), vehicle: other) of the same compound?
A: The survivor count was 0 of 6.

Q: What about the survivor count (dose: 400.0 mg/kg/injection, schedule: Q01DX009 (ip), vehicle: other) of the same compound?
A: The survivor count was 0 of 6.

Q: `COc1cccc(/C=N/N=C(N)N)c1` was tested. Which survivor count (dose: 120.0 mg/kg/injection, schedule: Q01DX Z (ip), vehicle: saline) did it give?
A: The survivor count was 0 of 6.

Q: And the survivor count (dose: 240.0 mg/kg/injection, schedule: Q01DX Z (oral), vehicle: saline)?
A: Its survivor count is 1 of 6.

Q: How did the survivor count [11] turn out when `CCCCCSP(SCCCCC)c1ccccc1` was run?
A: Its survivor count is 0 of 6.

Q: With `CC(=O)Oc1cccc(N(C)C)c1` as the compound, how does the survivor count (dose: 200.0 mg/kg/injection, schedule: Q01DX001 (ip), vehicle: acetone) read?
A: The survivor count was 3 of 6.

Q: What about the survivor count (dose: 400.0 mg/kg/injection, schedule: Q01DX001 (ip), vehicle: acetone) of the same compound?
A: Its survivor count is 0 of 6.
